Reference: PubChem BioAssay AID1347076 (National Center for Advancing Translational Sciences (NCATS), 2019)
About 13,000 (3.2%) of roughly 400,000 compounds were called active. Inconclusive results, whose numbers are uncertain, are shown with a selection of clear calls. Calls follow the shape of the dose curve; as a rule, active = well fitted cell-killing curve with a large enough effect; inconclusive = small, poorly fitted or top-dose-only effect, or effect the other way; inactive = flat fitted curve, though single readings scatter. A potency beside an inconclusive call is a rough fit, not a confirmed value.

experiment: qHTS assay for MDR1-selective chemotherapeutics: Primary screen using the drug-selected MDR subline cells KB-V1; conditions: KB-V1 MDR cells viability, CellTiter-Glo, 72 h; series mostly up to 46.1 µM; also: nearly all actives have a fitted effect of over 60% in size
How it was run: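 Compound-treated KB-V1 multidrug-resistant cells, 72 h, 37 degrees C; viability by CellTiter-Glo. Fitted qHTS curves give the values.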
Potency is read from the fitted curve at half-maximal effect.

SMILES	Potency
Cc1ccccc1Oc1ccc(NC(=O)C2CC=CCC2C(=O)O)cc1 (stereo not given)	inconclusive: 9.2 µM [cytotoxic, partial curve]
COc1ccc(CNC(=O)[C@H](C)[C@@H]2C[C@@]2(C)[C@@H](NC(=O)OCc2ccccc2)c2ccccc2)cc1OC	inconclusive: 23.1 µM [cytotoxic, partial curve, poor fit]
COc1ccc(-c2ccc(NC(=O)c3ccco3)cc2)nn1	inconclusive: 16.4 µM [cytotoxic, partial curve, poor fit]
CCn1c(CNC(=O)c2ccco2)nnc1SCC(=O)Nc1ccccc1Cl	inactive
COc1ccc(NCc2ccc(OC)c(Cn3ccnc3)c2)c(OC)c1	inconclusive: 6.51 µM [cytotoxic, partial curve]
O=C(CSc1nnc(-c2ccc(O)cc2)n1Cc1ccccc1)NNC(=O)c1ccc(Br)cc1	inactive
O=C1c2[nH]nc(-c3ccccc3O)c2C(c2cccc(Cl)c2)N1CC1CCCO1 (stereo not given)	inconclusive: 20.6 µM [cytotoxic, partial curve, poor fit]
O=C(Nc1ccccc1)Nc1cccc2nsnc12	inconclusive: 10.3 µM [cytotoxic, partial curve]
CC(C)CN(c1ccccc1)S(=O)(=O)c1nnc(NC(=O)c2ccco2)s1	inactive
CCCOc1ccccc1C(=O)Nc1ccc(S(=O)(=O)N2CCN(C)CC2)cc1	inactive
O=C(NCCC1=CCCCC1)Nc1ccc2nsnc2c1	inactive
COc1ccc(-c2nn(-c3ccccc3)cc2C(=O)Nc2ccccc2OC)cc1	inactive
Cc1ccc(N(CC(=O)NCCSCc2ccco2)S(=O)(=O)c2ccc(F)cc2)cc1	inconclusive: 5.8 µM [cytotoxic, partial curve]
O=C1C(=O)N(Cc2ccccc2)C(=O)N1CCOc1ccccc1	inconclusive: 20.6 µM [rising, single point]
Cc1cc(C)c(C#N)c(SCC(=O)Nc2cc(C)on2)n1	active: 8.2 µM
CC1=CC(=O)Nc2ccccc2S1	inconclusive: 23.1 µM [cytotoxic, partial curve, poor fit]
CNC(=S)Nc1ccc(OCc2ccccc2)cc1	inconclusive: 7.31 µM [rising, partial curve, poor fit]
CCOC(=O)N1CCN(c2nc(-c3cccc(OC)c3)cc(C(F)(F)F)n2)CC1	inactive
CC(CC(=O)Nc1ccc2c(c1)c(=O)n(C)n2-c1ccccc1F)c1ccccc1 (stereo not given)	inconclusive: 20.6 µM [cytotoxic, single point]
O=C(OCc1ccccc1)N1CCC2CC1c1ccc(-c3ccc4c(c3)OCO4)cc12 (stereo not given)	inactive
O=C(NCCc1ccccc1)C1CCN(c2nc3ccccc3o2)CC1	inactive
CC1CN(C(=O)COC(=O)c2cc(=O)c3ccccc3o2)CC(C)O1 (stereo not given)	inactive
CN(CCOc1ccc(Cl)cc1)C(=O)c1cc(S(=O)(=O)N2CCOCC2)ccc1N1CCCC1	inconclusive: 20.6 µM [cytotoxic, single point]

SMILES	Potency
CCN(CC)c1ccc(C2C3CCCCC3(O)CCN2C(=O)c2cccs2)cc1 (stereo not given)	inconclusive: 4.11 µM [cytotoxic, full curve]
CCN(CC(=O)NC(C)(C)C)C(=O)c1ccccc1SCC(=O)NC1CCCCCCC1	inactive
Clc1ccccc1C1SCC2Nc3ccccc3CN21 (stereo not given)	inconclusive: 23.1 µM [cytotoxic, single point]
COc1ccc(-c2csc(CCN3N=C(C)CC3=O)n2)cc1	inconclusive: 29.1 µM [cytotoxic, single point]
COCc1cc(C)nc(SCC(=O)Nc2ccc3[nH]c(=O)[nH]c3c2)c1C#N	inactive
CCc1ccc(CNC(=O)Cn2nc(-c3ccccc3)ccc2=O)cc1	inactive
COc1cc(C2c3cc4c(cc3OC(NNC(N)=S)C2C)OCO4)cc(OC)c1OC (stereo not given)	inconclusive: 1.16 µM [cytotoxic, full curve, poor fit]
COc1ccccc1C(CC(=O)c1ccccc1)C(=O)c1ccccc1 (stereo not given)	inconclusive: 20.6 µM [cytotoxic, partial curve]
O=[N+]([O-])c1ccc(/C=N\N2CCN(Cc3ccccc3Cl)CC2)cc1	inactive
C#CCOc1ccc(/C=N/NC(=O)c2cccnc2)cc1OCC	inconclusive: 0.259 µM [rising, partial curve, poor fit]
O=C(c1ccc(Oc2ccc(C(F)(F)F)cc2[N+](=O)[O-])cc1)N1CCOCC1	active: 23.1 µM
CN1CC2(Cc3c1ccc1ccccc31)C(=O)OC(C)(C)OC2=O	inconclusive: 29.1 µM [cytotoxic, single point]
O=C(c1ccccc1C(F)(F)F)N1CCN(S(=O)(=O)c2ccccc2)CC1	inconclusive: 20.6 µM [cytotoxic, partial curve]
Cc1ccc(N(C(C)C(=O)N2CCCCC2)S(C)(=O)=O)cc1C (stereo not given)	inconclusive: 23.1 µM [cytotoxic, partial curve]
CCN(CC)C(CNS(=O)(=O)c1ccc(Cl)cc1)c1ccccc1 (stereo not given)	inconclusive: 14.6 µM [cytotoxic, partial curve, poor fit]
CCOc1ncccc1C(=O)Nc1cc(S(=O)(=O)N2CCCCC2)ccc1Cl	inactive
CCCCCCCCN1C(=O)[C@H](CC(=O)NCc2ccccc2)C[C@@]2(C(=O)OCC)CCCC=C12	inconclusive: 7.31 µM [cytotoxic, partial curve]
COc1ccc(/C=N/NC(=O)C(=O)/C=C2\NC3(CCCC3)Cc3ccccc32)cc1	inconclusive: 20.6 µM [cytotoxic, partial curve, poor fit]
Cc1ccc(-n2ncc3c(NCc4ccc5c(c4)OCO5)ncnc32)c(C)c1	active: 4.11 µM
Cc1ccc(C2=NC(C(F)(F)F)(C(F)(F)F)c3c(n(-c4ccc(F)cc4)c(=O)[nH]c3=O)N2)cc1	active: 20.6 µM
NC(=O)N/N=C/c1c(F)c(F)c(F)c(F)c1F	inconclusive: 29.1 µM [cytotoxic, single point]
CC(C)N(C(=O)Cn1cc(SCC(=O)NCc2ccco2)c2ccccc21)C(C)C	inconclusive: 10.3 µM [cytotoxic, partial curve]

Rewritten with each value named: entries from further up.
COc1ccc(-c2ccc(NC(=O)c3ccco3)cc2)nn1
  Potency: inconclusive: 16.4 µM [cytotoxic, partial curve, poor fit]
O=C1c2[nH]nc(-c3ccccc3O)c2C(c2cccc(Cl)c2)N1CC1CCCO1 (stereo not given)
  Potency: inconclusive: 20.6 µM [cytotoxic, partial curve, poor fit]
CN1CC2(Cc3c1ccc1ccccc31)C(=O)OC(C)(C)OC2=O
  Potency: inconclusive: 29.1 µM [cytotoxic, single point]
